Experiment [1] has as its target Recepteur d'Origine Nantais (RON), expressed from pcDNA3.1-RON (UniProt Q04912). The experiment is described as follows: co-IP; MGC-803 cells transfected with pcDNA3.1-RON or pcDNA3.1-RONΔ160; RIPA lysates incubated with anti-RON, anti-RONΔ160 or IgG overnight, protein A/G beads 3 h at room temperature; Western blot.
Experiment [2] deals with Recepteur d'Origine Nantais (RON), endogenous in KATOIII cells (human (endogenous in KATOIII)) (UniProt Q04912). The experiment is described as follows: co-IP; nuclear proteins of KATOIII cells (NE-PER kit), normoxic and hypoxic (1% O2) conditions; also after RON or β-catenin siRNA; precipitating antibody not told for this experiment.
Experiment [3] has the same target. Description: co-IP; cytoplasmic proteins of KATOIII cells (NE-PER kit), normoxic and hypoxic (1% O2) conditions; precipitating antibody not told for this experiment.

Protein sequences, listed by entry. Tags and fused reporters are not part of them. Residues count along the entry.
UniProt Q04912, residues 25-1400: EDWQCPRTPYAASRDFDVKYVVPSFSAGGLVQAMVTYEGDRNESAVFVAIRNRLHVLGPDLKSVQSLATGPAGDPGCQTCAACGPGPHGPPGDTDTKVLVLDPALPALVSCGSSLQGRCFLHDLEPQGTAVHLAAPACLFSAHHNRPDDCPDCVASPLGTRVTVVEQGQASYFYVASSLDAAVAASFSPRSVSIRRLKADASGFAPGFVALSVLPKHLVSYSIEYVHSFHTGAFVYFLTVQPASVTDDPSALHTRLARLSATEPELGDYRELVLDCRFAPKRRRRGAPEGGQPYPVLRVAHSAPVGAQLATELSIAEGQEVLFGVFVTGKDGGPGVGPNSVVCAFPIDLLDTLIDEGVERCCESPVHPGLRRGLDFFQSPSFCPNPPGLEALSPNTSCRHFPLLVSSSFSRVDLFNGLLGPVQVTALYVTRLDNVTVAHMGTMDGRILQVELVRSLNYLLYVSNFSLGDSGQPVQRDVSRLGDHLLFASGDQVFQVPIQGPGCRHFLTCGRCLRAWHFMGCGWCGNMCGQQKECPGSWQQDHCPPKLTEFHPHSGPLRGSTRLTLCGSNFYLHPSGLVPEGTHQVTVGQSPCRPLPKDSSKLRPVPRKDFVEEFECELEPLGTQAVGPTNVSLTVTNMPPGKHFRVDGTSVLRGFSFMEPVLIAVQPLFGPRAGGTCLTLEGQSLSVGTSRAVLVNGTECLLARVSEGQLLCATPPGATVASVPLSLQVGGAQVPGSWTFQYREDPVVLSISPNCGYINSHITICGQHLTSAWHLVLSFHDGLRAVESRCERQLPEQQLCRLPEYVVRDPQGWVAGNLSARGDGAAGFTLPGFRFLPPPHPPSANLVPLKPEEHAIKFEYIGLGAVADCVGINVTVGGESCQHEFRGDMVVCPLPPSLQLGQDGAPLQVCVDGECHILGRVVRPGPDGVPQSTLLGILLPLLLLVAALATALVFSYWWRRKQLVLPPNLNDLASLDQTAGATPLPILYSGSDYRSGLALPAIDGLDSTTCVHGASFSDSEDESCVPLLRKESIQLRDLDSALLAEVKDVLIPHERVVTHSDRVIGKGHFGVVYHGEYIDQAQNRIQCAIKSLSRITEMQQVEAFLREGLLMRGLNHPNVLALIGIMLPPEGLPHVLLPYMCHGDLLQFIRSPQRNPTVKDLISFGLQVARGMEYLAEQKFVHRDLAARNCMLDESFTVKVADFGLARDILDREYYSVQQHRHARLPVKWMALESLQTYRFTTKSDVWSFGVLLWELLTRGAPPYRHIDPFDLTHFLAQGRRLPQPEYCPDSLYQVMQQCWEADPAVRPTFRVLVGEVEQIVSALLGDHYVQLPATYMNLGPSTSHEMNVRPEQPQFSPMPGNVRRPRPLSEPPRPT
UniProt P35222: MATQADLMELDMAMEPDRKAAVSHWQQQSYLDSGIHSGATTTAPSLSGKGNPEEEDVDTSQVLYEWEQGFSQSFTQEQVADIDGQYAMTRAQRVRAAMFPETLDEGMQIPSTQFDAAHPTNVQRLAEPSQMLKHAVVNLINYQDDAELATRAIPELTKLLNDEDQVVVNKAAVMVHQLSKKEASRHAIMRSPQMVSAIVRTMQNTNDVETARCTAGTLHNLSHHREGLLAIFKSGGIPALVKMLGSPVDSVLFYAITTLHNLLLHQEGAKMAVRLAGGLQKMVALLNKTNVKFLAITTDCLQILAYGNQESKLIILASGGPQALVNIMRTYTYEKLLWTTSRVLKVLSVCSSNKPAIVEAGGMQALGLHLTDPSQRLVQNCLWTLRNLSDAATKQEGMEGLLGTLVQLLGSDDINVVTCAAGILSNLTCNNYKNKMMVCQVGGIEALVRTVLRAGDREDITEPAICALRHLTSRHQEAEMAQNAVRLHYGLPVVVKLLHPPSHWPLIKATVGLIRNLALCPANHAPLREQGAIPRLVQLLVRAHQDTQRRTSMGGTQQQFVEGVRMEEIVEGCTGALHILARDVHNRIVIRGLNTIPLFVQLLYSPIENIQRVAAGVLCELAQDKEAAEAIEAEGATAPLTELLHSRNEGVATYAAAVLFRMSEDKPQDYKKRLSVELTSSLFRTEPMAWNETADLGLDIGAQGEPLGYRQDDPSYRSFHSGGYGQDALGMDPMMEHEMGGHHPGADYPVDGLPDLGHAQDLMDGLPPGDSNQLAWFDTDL
UniProt Q16665: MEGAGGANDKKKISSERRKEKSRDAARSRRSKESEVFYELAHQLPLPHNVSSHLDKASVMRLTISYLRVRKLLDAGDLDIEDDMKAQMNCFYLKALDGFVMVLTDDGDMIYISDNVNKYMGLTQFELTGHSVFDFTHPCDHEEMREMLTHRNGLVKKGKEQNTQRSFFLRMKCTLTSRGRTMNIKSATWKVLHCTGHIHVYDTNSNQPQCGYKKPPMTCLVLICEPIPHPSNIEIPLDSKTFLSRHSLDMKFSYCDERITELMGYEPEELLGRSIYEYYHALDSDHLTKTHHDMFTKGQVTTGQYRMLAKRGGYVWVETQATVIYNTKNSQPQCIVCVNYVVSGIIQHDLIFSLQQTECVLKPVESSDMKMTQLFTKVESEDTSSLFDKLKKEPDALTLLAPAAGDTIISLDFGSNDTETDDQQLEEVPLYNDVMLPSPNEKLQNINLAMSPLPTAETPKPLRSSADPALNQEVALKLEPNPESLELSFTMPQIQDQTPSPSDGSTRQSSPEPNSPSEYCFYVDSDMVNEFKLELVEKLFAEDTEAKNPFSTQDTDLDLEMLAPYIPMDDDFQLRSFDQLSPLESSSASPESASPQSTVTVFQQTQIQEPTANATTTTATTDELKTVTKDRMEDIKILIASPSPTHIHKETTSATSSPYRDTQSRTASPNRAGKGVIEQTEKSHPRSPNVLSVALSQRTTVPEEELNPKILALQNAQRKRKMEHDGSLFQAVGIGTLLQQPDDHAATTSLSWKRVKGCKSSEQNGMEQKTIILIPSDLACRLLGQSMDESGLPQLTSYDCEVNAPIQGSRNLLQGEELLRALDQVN

Results are given in words; binding and its absence hold for the method and conditions named. In cells and extracts the contact can be indirect. Some entries that bind do so weakly or less than the wild type.

β-catenin (from UniProt P35222 1-781): the binding result is “binds” in experiment [1], “binds” in experiment [2] and “no binding (condition: in the cytoplasmic proteins)” in experiment [3].
As to “hypoxia-inducible factor-1α (from UniProt Q16665 1-826)”, the binding result in experiment [2] was “binds”; in experiment [3], “no binding (condition: in the cytoplasmic proteins)”.
